Test results published in patent US5969097A, “Human guanylin” (G. D. Searle & Co., priority 1992, dated 1999).
Not every detail of the peptide structures is certain; ends, links or a residue may be inferred. Where a SMILES comes first, the peptide text is derived from it. Bridges are numbered along the chain shown (N, C = ends).

By UniProt entry, the sequences of proteins in these tests, tags left out. Residues count along the entry.
UniProt P25092, 24-1073: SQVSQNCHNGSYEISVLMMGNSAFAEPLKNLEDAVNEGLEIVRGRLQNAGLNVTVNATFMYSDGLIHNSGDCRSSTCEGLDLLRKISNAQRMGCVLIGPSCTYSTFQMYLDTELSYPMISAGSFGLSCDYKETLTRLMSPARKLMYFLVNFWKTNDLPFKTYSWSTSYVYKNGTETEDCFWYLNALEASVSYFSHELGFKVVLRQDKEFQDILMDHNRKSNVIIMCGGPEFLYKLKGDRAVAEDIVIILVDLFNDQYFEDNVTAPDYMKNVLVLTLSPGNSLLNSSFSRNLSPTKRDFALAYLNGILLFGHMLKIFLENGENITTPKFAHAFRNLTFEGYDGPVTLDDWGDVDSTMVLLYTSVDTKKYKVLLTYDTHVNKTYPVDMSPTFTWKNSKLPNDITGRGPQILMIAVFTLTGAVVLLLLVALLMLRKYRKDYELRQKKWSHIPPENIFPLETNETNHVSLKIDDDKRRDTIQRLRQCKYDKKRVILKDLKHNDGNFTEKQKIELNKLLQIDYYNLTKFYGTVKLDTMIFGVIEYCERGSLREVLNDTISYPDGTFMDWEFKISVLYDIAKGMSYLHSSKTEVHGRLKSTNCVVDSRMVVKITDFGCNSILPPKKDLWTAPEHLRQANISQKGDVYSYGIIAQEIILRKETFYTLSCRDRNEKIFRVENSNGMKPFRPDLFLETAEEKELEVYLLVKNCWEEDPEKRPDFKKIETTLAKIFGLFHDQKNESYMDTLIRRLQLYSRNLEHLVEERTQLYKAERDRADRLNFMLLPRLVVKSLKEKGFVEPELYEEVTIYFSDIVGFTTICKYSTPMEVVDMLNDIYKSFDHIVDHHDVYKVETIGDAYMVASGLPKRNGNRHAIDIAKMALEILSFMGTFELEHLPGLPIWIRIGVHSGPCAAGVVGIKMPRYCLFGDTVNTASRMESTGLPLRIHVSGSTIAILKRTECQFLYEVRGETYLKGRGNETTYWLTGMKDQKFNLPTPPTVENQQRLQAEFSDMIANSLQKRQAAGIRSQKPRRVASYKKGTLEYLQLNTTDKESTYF

Experiments:
[1] = system: isolated rat colons; assay: Short circuit current (indicator of chloride secretion) in isolated rat colons; settings: mucosal addition
[2] = target: T1, intestinal guanylate cyclase (Homo sapiens, UniProt P25092); assay: T84 cell bioassay: intracellular cyclic GMP levels; format: cell-based; settings: T84 cells, FIG. 3a
T1 construct: host or cells: T84 human colon carcinoma cells
Procedure: a) Activity in the T84 cell bioassay. As determined by analysis of the effects of the peptides on intracellular cyclic GMP levels.
Cell Culture: A cultured human colon carcinoma cell line (T84) was obtained from the American Type Culture Collection (Rockville, Md.) at passage 52. Cells were grown to confluency in 24-well culture plates with a 1:1 mixture of Ham's F12 medium and Dulbecco's modified Eagle's medium (DMEM), supplemented with 10% fetal calf serum, 100 IU/ml penicillin, and 100 μg/ml streptomycin. Cells were used at passages 54-60.
Cyclic GMP determination: Monolayers of T84 cells in 24-well plates were washed twice with 1 ml/well DMEM, then incubated at 37 C. for 10 min with 0.5 ml DMEM containing 1 mM isobutylmethylxanthine (IBMX), a cyclic nucleotide phosphodiesterase inhibitor. Agents and fractions were then added for the indicated time as described in the results section. The media was then aspirated and the reaction terminated by the addition of ice cold 0.5 ml of 0.1N HCl. Aliquots were then evaporated to dryness under nitrogen and then resuspended in 5 mM sodium acetate buffer, pH 6.4. The samples were subsequently measured for cyclic GMP by RIA as described by Steiner et al. (16).

## CC[C@H](C)[C@@H]1NC(=O)[C@H](CCC(=O)O)NC(=O)[C@@H](NC(=O)[C@@H](NC(=O)CNC(=O)[C@@H]2CCCN2)[C@@H](C)O)CSSC[C@@H]2NC(=O)[C@H](C)NC(=O)[C@H](C)NC(=O)[C@H](Cc3ccc(O)cc3)NC(=O)[C@H](C)NC(=O)[C@H](CSSC[C@@H](C(=O)O)NC(=O)CNC(=O)[C@H]([C@@H](C)O)NC2=O)NC1=O [human guanylin] (H-PGTCEICAYAACTGC-OH; disulfide 4-12, 7-15)
[1]; FIG. 5
  effect on short circuit current (Isc): concentration-dependent increase and sustained increase in ISC
[1]; cumulative concentration-response, n=8, FIG. 5, read-out: EC50 for increase in short circuit current (Isc)
  EC50: 30 nM
[2]
  effect on T84 cell cyclic GMP: concentration-dependent increase in T84 cell cyclic GMP
[2]; compared with STa
  relative potency to activate intestinal guanylate cyclase (T84 cell cyclic GMP): about one order of magnitude less potent than STa
